Whole data set: some 33,000 sequences, median “E-score (-0.5 to 0.5)” near -8e-05, cut for the highest 2% near 0.23. This is one part of the list.

This experiment deals with T1, Nrg2 (UniProt P38082).
T1 sequence: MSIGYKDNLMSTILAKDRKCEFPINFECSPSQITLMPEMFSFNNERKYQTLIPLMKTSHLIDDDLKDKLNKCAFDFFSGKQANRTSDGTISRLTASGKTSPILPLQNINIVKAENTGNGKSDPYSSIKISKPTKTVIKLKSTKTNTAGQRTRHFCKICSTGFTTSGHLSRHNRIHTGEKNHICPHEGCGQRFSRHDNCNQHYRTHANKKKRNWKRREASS
Kind of experiment: PBM E-score (8-mer binding enrichment) (E-score (-0.5 to 0.5)); higher = stronger / more preferred TF binding. Particulars: protein concentration: 100 nM; construct: GST-full length. On the procedure:
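Universal 'all 10-mer' protein binding microarrays (Agilent AMADID 015681) probed with GST-tagged S. cerevisiae TFs (full-length or DBD) made by in vitro transcription/translation (PURExpress), about 100-200 nM. Bound TF was detected with fluorescent anti-GST. Each ungapped 8-mer (which stands for itself and its reverse complement) is scored by the PBM enrichment score (E-score), a modified Wilcoxon-Mann-Whitney statistic from -0.5 to +0.5, computed with the Universal PBM Analysis Suite. Scale: above 0.35 generally sequence-specific binding.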
For the sequence AGTGCACA, the “PBM E-score” value is -0.0126.
For AATATGGC, the “PBM E-score” value came to 0.0624.
Under AGCCTGTC stands 0.011; under CAAAATGC, -0.182.
With GCTATGTA the figure was -0.0588.
Under CCATGAGA stands 0.0913; under AGGGTTAT, 0.112.
For the sequence ATCAGTGG, the “PBM E-score” value is -0.0444.
Under GTGGGATA stands 0.0749; under ACATTGGG, -0.239.
With ACCAGGCA, the “PBM E-score” value was found to be 0.0216.
With TACTTAGA the figure was 0.00114.
With AAATTGGG the figure was 0.0734; with AGAGGGCC, -0.117.
On to ATTCTACA, for which the “PBM E-score” value is 0.191.
With CTAACGCC the figure was -0.0506; with AGCTCTCC, -0.212; with ACGAATCC, 0.0708.
Take TACAACCA: the “PBM E-score” value turned out to be 0.153.
With CTTTTATA the figure was -0.242; with CCTTACAG, -0.143.
As for CCGCAGTC, the “PBM E-score” value was -0.14.
As to ACGGACGA, the “PBM E-score” value came out at 0.119.
Take TTGATCAA: the “PBM E-score” value was 0.185.
Turning to GTTGCGGA, the “PBM E-score” value is -0.0637.
Under CCAAGCCC stands -0.0977.
For CAGTAACA, the “PBM E-score” value is -0.11.
With AGCATCTG the figure was 0.0318; with ATGTTTTA, -0.165.
TAACCTGA: the “PBM E-score” value is 0.0287.
Under AGAGAGCC stands -0.114.
Under ACGCGCTG stands 0.109; under CCACGGTA, -0.177; under TGGGGGAA, -0.436.
With GTCACCAA the figure was -0.114; with AATGGGGA, 0.0109; with GACACAAC, -0.039.
GCATATGA: the “PBM E-score” value came out at 0.205.
With AAACAGTA the figure was -0.0863.
Under CGAGCCTA stands -0.09; under AATGGGCG, -0.179.
With AAGAGTTA the figure was -0.134; with CCTTTAGC, -0.148.
CATACCGC: the “PBM E-score” value is -0.0117.
With GCCTCCAC the figure was -0.259.
As to AGCTCGTG, the “PBM E-score” value is 0.0659.
On to CTGCACGA, for which the “PBM E-score” value is 0.0401.
Under AAACGTTT stands -0.0594.
ACCGATCC: the “PBM E-score” value is -0.0699.
With GAGGAGAC the figure was -0.199; with AGTGTTCA, 0.172; with CTGTGCCC, 0.0331.
With ACCCGTCC the figure was -0.208; with GAAACCAA, 0.0143; with ACGTGCTG, 0.0915.
With AAGCGCGC, the “PBM E-score” value was 0.216.
With CCGAGTTC the figure was 0.108; with TCCGGGCA, -0.094.
With ATAGGGCC the figure was 0.139.
In the case of TCCTAGAA, the “PBM E-score” value was -0.185.
With CGATACGC the figure was 0.0215.
With CCTCGATC the figure was -0.144; with ACGCACCC, -0.154; with CTACGTTC, -0.178.
As to ATCAGAAT, the “PBM E-score” value is 0.153.
As for CTCTGTAC, the “PBM E-score” value is 0.015.
With GAACGCTC the figure was -0.107; with AGCCCGCC, -0.0408; with AGCAATCA, 0.085.
With ATATGACC the figure was -0.153.
With CTTCATGA the figure was 0.158; with CAGCATGG, -0.0508.
With GAAGCCCC, the “PBM E-score” value was -0.115.
With GAAATACC the figure was 0.184; with AGGAGAGG, -0.211; with AGGCAGGG, 0.0837.
Turning to ATAGGAAT, the “PBM E-score” value amounted to 0.0172.
Turning to CAGCGAGC, the “PBM E-score” value worked out at 0.0399.
Under ACTAACGA stands 0.00448; under CGTCGTGA, -0.129.
For CCTTCATA, the “PBM E-score” value amounted to 0.0191.
Under GCCCCGCC stands 0.0441; under AGGGGACT, 0.0216.
For the sequence GAGTTAGC, the “PBM E-score” value is 0.185.
Under ACCTTTGG stands -0.273; under GTGCGCAA, 0.0151.

(Values after the supplement of paper PMC3334620.)
